Further values from the same series stand in other lists. Where a SMILES comes first, the peptide text is derived from it. Bridges are numbered along the chain shown (N, C = ends). [ ]: non-standard residue; d: D form. The star is where a group is joined. Heptanoyl(5-Me) = CCC(C)CCCC(=O)*; Dab = NCC[C@H](N)C(=O)O
How the values were obtained:
Details in all cases: growth mode: biofilm, 24 h; exposure time: 24 h
[1] = compound: T1, NC[C@H]1O[C@H](O[C@H]2[C@H](O)[C@@H](O[C@H]3O[C@H](CO)[C@@H](O)[C@H](N)[C@H]3O)[C@H](N)C[C@@H]2N)[C@H](N)C[C@@H]1O [tobramycin]; test: minimum concentration of killing, 2-log CFU reduction of biofilm (MCK99); higher = more biofilm tolerance
Procedure: (§1)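 Clinical P. aeruginosa isolates were grown as static biofilms for 24 h at 37 °C in LB in half-area 96-well plates, then exposed for 24 h to tobramycin at 1, 4, 16, 64, 256 or […]. Surviving CFU were counted by spotting serial dilutions. MCK is the lowest tested concentration giving the stated log reduction in CFU versus an untreated control; '>1024' means the reduction was not reached at the top dose, and 1 is the lowest dose tested (≤1).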

[2] = compound: T2, CCC(C)CCCC(=O)N[C@@H](CCN)C(=O)N[C@H](C(=O)N[C@@H](CCN)C(=O)N[C@H]1CCNC(=O)[C@H]([C@@H](C)O)NC(=O)[C@H](CCN)NC(=O)[C@H](CCN)NC(=O)[C@H](CC(C)C)NC(=O)[C@@H](CC(C)C)NC(=O)[C@H](CCN)NC1=O)[C@@H](C)O [colistin]; test: minimum concentration eradicating biofilm below detection limit (MCK-E); higher = more biofilm tolerance
Procedure: as §1, with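 “colistin” for “tobramycin”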

[3] = compound: T2, colistin; test: minimum concentration of killing, 4-log CFU reduction of biofilm (MCK99.99); higher = more biofilm tolerance
Procedure: as §1, with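 “colistin” for “tobramycin”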

[4] = compound: T2, colistin; test: minimum concentration of killing, 2-log CFU reduction of biofilm (MCK99); higher = more biofilm tolerance
Procedure: as §1, with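 “colistin” for “tobramycin”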

[5] = compound: T1, tobramycin; test: minimum concentration of killing, 4-log CFU reduction of biofilm (MCK99.99); higher = more biofilm tolerance
Procedure: as §1

[6] = compound: T1, tobramycin; test: minimum concentration of killing, 1-log CFU reduction of biofilm (MCK90); higher = more biofilm tolerance
Procedure: as §1

[7] = compound: T1, tobramycin; test: minimum concentration eradicating biofilm below detection limit (MCK-E); higher = more biofilm tolerance
Procedure: as §1

[8] = compound: T2, colistin; test: minimum concentration of killing, 1-log CFU reduction of biofilm (MCK90); higher = more biofilm tolerance
Procedure: as §1, with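 “colistin” for “tobramycin”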

| Test System | minimum concentration of killing [1] | minimum concentration eradicating biofilm below detection limit [2] | minimum concentration of killing [3] | minimum concentration of killing [4] | minimum concentration of killing [5] | minimum concentration of killing [6] | minimum concentration eradicating biofilm below detection limit [7] | minimum concentration of killing [8] |
| --- | --- | --- | --- | --- | --- | --- | --- | --- |
| Pseudomonas aeruginosa clinical isolate MD6439 | ≤ 1 µg/mL | 256 µg/mL | 256 µg/mL | 256 µg/mL | 256 µg/mL | ≤ 1 µg/mL | 256 µg/mL | 64 µg/mL |
| Pseudomonas aeruginosa clinical isolate MD8034 | 16 µg/mL | 256 µg/mL | 256 µg/mL | 64 µg/mL | 16 µg/mL | ≤ 1 µg/mL | 16 µg/mL | 64 µg/mL |
| Pseudomonas aeruginosa clinical isolate MD8386 | 256 µg/mL | 256 µg/mL | 256 µg/mL | 64 µg/mL | 256 µg/mL | 256 µg/mL | 1020 µg/mL | 64 µg/mL |
| Pseudomonas aeruginosa clinical isolate MD8672 | 16 µg/mL | 256 µg/mL | 256 µg/mL | 256 µg/mL | 256 µg/mL | 4 µg/mL | 256 µg/mL | 256 µg/mL |
| Pseudomonas aeruginosa clinical isolate MD9120 | 16 µg/mL | 256 µg/mL | 256 µg/mL | 256 µg/mL | 64 µg/mL | 4 µg/mL | 64 µg/mL | 64 µg/mL |
| Pseudomonas aeruginosa clinical isolate MD9121 | 16 µg/mL | 256 µg/mL | 256 µg/mL | 256 µg/mL | 16 µg/mL | 16 µg/mL | 64 µg/mL | 256 µg/mL |
| Pseudomonas aeruginosa clinical isolate MD9481 | 16 µg/mL | 256 µg/mL | 256 µg/mL | 64 µg/mL | 16 µg/mL | 4 µg/mL | 64 µg/mL | 64 µg/mL |
| Pseudomonas aeruginosa clinical isolate MD9965_1 | ≤ 1 µg/mL | 256 µg/mL | 256 µg/mL | 256 µg/mL | 16 µg/mL | ≤ 1 µg/mL | 64 µg/mL | 256 µg/mL |
| Pseudomonas aeruginosa clinical isolate MD9965_2 | ≤ 1 µg/mL | 256 µg/mL | 256 µg/mL | 64 µg/mL | 64 µg/mL | ≤ 1 µg/mL | 256 µg/mL | 64 µg/mL |
| Pseudomonas aeruginosa clinical isolate MD10010 | 16 µg/mL | 256 µg/mL | 256 µg/mL | 64 µg/mL | 256 µg/mL | 16 µg/mL | 256 µg/mL | 64 µg/mL |
| Pseudomonas aeruginosa clinical isolate MHH0147 | 256 µg/mL | 64 µg/mL | 16 µg/mL | 16 µg/mL | > 1020 µg/mL | 4 µg/mL | > 1020 µg/mL | 16 µg/mL |
| Pseudomonas aeruginosa clinical isolate MHH0426 | 1020 µg/mL | 64 µg/mL | 64 µg/mL | 16 µg/mL | > 1020 µg/mL | 1020 µg/mL | > 1020 µg/mL | 16 µg/mL |
| Pseudomonas aeruginosa clinical isolate MHH0927 | 256 µg/mL | 64 µg/mL | 64 µg/mL | 64 µg/mL | 1020 µg/mL | 16 µg/mL | 1020 µg/mL | 4 µg/mL |
| Pseudomonas aeruginosa clinical isolate MHH0985 | > 1020 µg/mL | 64 µg/mL | 16 µg/mL | 16 µg/mL | > 1020 µg/mL | > 1020 µg/mL | > 1020 µg/mL | 16 µg/mL |
| Pseudomonas aeruginosa clinical isolate MHH1883 | 64 µg/mL | 64 µg/mL | 64 µg/mL | 64 µg/mL | 256 µg/mL | ≤ 1 µg/mL | > 1020 µg/mL | 64 µg/mL |
| Pseudomonas aeruginosa clinical isolate MHH2419 | > 1020 µg/mL | 256 µg/mL | 256 µg/mL | 256 µg/mL | > 1020 µg/mL | > 1020 µg/mL | > 1020 µg/mL | 256 µg/mL |
| Pseudomonas aeruginosa clinical isolate MHH14911 | 256 µg/mL | 256 µg/mL | 256 µg/mL | 256 µg/mL | 1020 µg/mL | 64 µg/mL | 1020 µg/mL | 256 µg/mL |
| Pseudomonas aeruginosa clinical isolate MHH14929 | 16 µg/mL | 256 µg/mL | 256 µg/mL | 256 µg/mL | 256 µg/mL | ≤ 1 µg/mL | 1020 µg/mL | 256 µg/mL |
| Pseudomonas aeruginosa clinical isolate MHH14990 | 16 µg/mL | 256 µg/mL | 256 µg/mL | 256 µg/mL | 256 µg/mL | 16 µg/mL | 256 µg/mL | 256 µg/mL |
| Pseudomonas aeruginosa clinical isolate MHH15015 | 1020 µg/mL | 256 µg/mL | 64 µg/mL | 64 µg/mL | 1020 µg/mL | 256 µg/mL | 1020 µg/mL | 64 µg/mL |

| Test System | minimum concentration of killing [1] | minimum concentration eradicating biofilm below detection limit [2] | minimum concentration of killing [3] | minimum concentration of killing [4] | minimum concentration of killing [5] | minimum concentration of killing [6] | minimum concentration eradicating biofilm below detection limit [7] | minimum concentration of killing [8] |
| --- | --- | --- | --- | --- | --- | --- | --- | --- |
| Pseudomonas aeruginosa clinical isolate MHH15151 | 16 µg/mL | 256 µg/mL | 256 µg/mL | 256 µg/mL | 64 µg/mL | 16 µg/mL | 64 µg/mL | 256 µg/mL |
| Pseudomonas aeruginosa clinical isolate MHH15187 | 16 µg/mL | 256 µg/mL | 256 µg/mL | 64 µg/mL | 256 µg/mL | ≤ 1 µg/mL | 256 µg/mL | ≤ 1 µg/mL |
| Pseudomonas aeruginosa clinical isolate MHH15204 | 64 µg/mL | 64 µg/mL | 64 µg/mL | 16 µg/mL | 1020 µg/mL | ≤ 1 µg/mL | 1020 µg/mL | ≤ 1 µg/mL |
| Pseudomonas aeruginosa clinical isolate MHH15275 | > 1020 µg/mL | 256 µg/mL | 256 µg/mL | 256 µg/mL | > 1020 µg/mL | 1020 µg/mL | > 1020 µg/mL | 256 µg/mL |
| Pseudomonas aeruginosa clinical isolate MHH15280 | 64 µg/mL | 256 µg/mL | 256 µg/mL | 256 µg/mL | 1020 µg/mL | 64 µg/mL | 1020 µg/mL | 256 µg/mL |
| Pseudomonas aeruginosa clinical isolate MHH15286 | ≤ 1 µg/mL | 256 µg/mL | 256 µg/mL | 64 µg/mL | 64 µg/mL | ≤ 1 µg/mL | 256 µg/mL | 64 µg/mL |
| Pseudomonas aeruginosa clinical isolate MHH15817 | 64 µg/mL | 256 µg/mL | 256 µg/mL | 256 µg/mL | 256 µg/mL | ≤ 1 µg/mL | 256 µg/mL | ≤ 1 µg/mL |
| Pseudomonas aeruginosa clinical isolate MHH16050 | 1020 µg/mL | 64 µg/mL | 64 µg/mL | 64 µg/mL | > 1020 µg/mL | 16 µg/mL | > 1020 µg/mL | 64 µg/mL |
| Pseudomonas aeruginosa clinical isolate MHH16208 | 4 µg/mL | 256 µg/mL | 256 µg/mL | 256 µg/mL | 256 µg/mL | ≤ 1 µg/mL | 256 µg/mL | 256 µg/mL |
| Pseudomonas aeruginosa clinical isolate MHH16371 | 16 µg/mL | 256 µg/mL | 256 µg/mL | 64 µg/mL | 256 µg/mL | 16 µg/mL | 256 µg/mL | 64 µg/mL |
| Pseudomonas aeruginosa clinical isolate MHH16379 | 4 µg/mL | 256 µg/mL | 256 µg/mL | 256 µg/mL | 256 µg/mL | ≤ 1 µg/mL | 256 µg/mL | 64 µg/mL |
| Pseudomonas aeruginosa clinical isolate MHH16427 | 16 µg/mL | 256 µg/mL | 256 µg/mL | 256 µg/mL | 256 µg/mL | 4 µg/mL | 1020 µg/mL | 256 µg/mL |
| Pseudomonas aeruginosa clinical isolate MHH16459 | 256 µg/mL | 256 µg/mL | 256 µg/mL | 256 µg/mL | > 1020 µg/mL | 256 µg/mL | > 1020 µg/mL | 256 µg/mL |
| Pseudomonas aeruginosa clinical isolate MHH16513 | 4 µg/mL | 256 µg/mL | 256 µg/mL | 256 µg/mL | 4 µg/mL | 4 µg/mL | 256 µg/mL | 16 µg/mL |
| Pseudomonas aeruginosa clinical isolate MHH16530 | 256 µg/mL | 256 µg/mL | 256 µg/mL | 256 µg/mL | 1020 µg/mL | 64 µg/mL | 1020 µg/mL | 64 µg/mL |
| Pseudomonas aeruginosa clinical isolate MHH16563 | 256 µg/mL | 64 µg/mL | 64 µg/mL | 64 µg/mL | 1020 µg/mL | 64 µg/mL | > 1020 µg/mL | 16 µg/mL |
| Pseudomonas aeruginosa clinical isolate MHH16610 | 4 µg/mL | 256 µg/mL | 256 µg/mL | 256 µg/mL | 256 µg/mL | ≤ 1 µg/mL | 1020 µg/mL | 64 µg/mL |
| Pseudomonas aeruginosa clinical isolate MHH16727 | 256 µg/mL | 256 µg/mL | 256 µg/mL | 256 µg/mL | 1020 µg/mL | 256 µg/mL | 1020 µg/mL | 256 µg/mL |
| Pseudomonas aeruginosa clinical isolate MHH16798 | 16 µg/mL | 256 µg/mL | 256 µg/mL | 64 µg/mL | 16 µg/mL | ≤ 1 µg/mL | 64 µg/mL | 64 µg/mL |
| Pseudomonas aeruginosa clinical isolate MHH17247 | 4 µg/mL | 256 µg/mL | 256 µg/mL | 256 µg/mL | 16 µg/mL | 4 µg/mL | 64 µg/mL | 256 µg/mL |
